The values that follow come from PMC3617406 (Molecular pharmaceutics, 2013).

For this assay, the target named is T1, human ASBT (Homo sapiens, UniProt Q12908).
T1 sequence (Q12908 1-348): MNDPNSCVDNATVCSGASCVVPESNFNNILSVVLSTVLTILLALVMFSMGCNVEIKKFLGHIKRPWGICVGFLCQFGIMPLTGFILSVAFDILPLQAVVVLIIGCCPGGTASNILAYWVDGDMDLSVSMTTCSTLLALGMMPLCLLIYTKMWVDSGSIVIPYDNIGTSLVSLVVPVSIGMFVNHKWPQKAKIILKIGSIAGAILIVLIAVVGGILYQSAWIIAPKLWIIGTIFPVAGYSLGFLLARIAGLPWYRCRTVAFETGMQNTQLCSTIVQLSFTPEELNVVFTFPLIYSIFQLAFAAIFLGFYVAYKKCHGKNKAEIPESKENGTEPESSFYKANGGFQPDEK
It is filed as cell-based. Conditions: Ki values of Table 4 and 5.

Consider `COc1ccc(CC(C)NCC(O)c2ccc(O)c(NC=O)c2)cc1` (stereo not shown) [Formoterol], for which the “fold more potent ASBT inhibition than NTCP inhibition” value is listed as at least 10 fold.
